From PubChem BioAssay AID1347076 (National Center for Advancing Translational Sciences (NCATS), 2019)
In all, about 400,000 compounds went through this assay and about 13,000 (3.2%) were called active. The inconclusive results got no clear call from the source; some entries with a clear call stand among them for comparison. The call rests on the fitted dose curve; in most records, active means well fitted cell-killing curve with a large enough effect; inconclusive means small, poorly fitted or top-dose-only effect, or effect the other way; inactive means flat fitted curve, though single readings scatter. A potency beside an inconclusive call is a rough fit, not a confirmed value.

Assay: qHTS assay for MDR1-selective chemotherapeutics: Primary screen using the drug-selected MDR subline cells KB-V1; further: nearly all actives have a fitted effect of over 60% in size
Details: KB-V1 MDR cells viability, CellTiter-Glo, 72 h; activity change, negative = cytotoxicity: at 46.1 µM (top of the series)
Method in brief: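 Compound-treated KB-V1 multidrug-resistant cells, 72 h, 37 degrees C; viability by CellTiter-Glo. Fitted qHTS curves give the values.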
On the % scale 0 is the no-effect control and ±100 the full control effect; potency means the concentration at half of the fitted maximal effect.

SMILES	activity change, negative = cytotoxicity	Potency
OCCC1CN(Cc2nc(-c3ccc(F)cc3)cs2)CCN1CCc1ccccc1 (stereo unspecified)	inactive: -0.0026%	
N#Cc1ccccc1NC(=O)c1cc2c(=O)n3ccccc3nc2s1	inactive: 9.22%	
O=C(CSCc1ccc(Cl)cc1)N1CCCCC1		inconclusive: 29.1 µM [cytotoxic, partial curve, poor fit]
CCc1nnc(NC(=O)c2ccc(S(=O)(=O)N(C)Cc3ccccc3)cc2)o1		active: 3.66 µM
CC1CCN(S(=O)(=O)c2ccc3c(c2)N(CC(=O)NCCCN2CCCCC2C)C(=O)CS3)CC1 (stereo unspecified)		inconclusive: 29.1 µM [rising, single point]
COC(=O)c1c(C)oc(C)c1S(=O)(=O)N1CCCCC1		inconclusive: 0.411 µM [rising, full curve, poor fit]
O=S(=O)(c1ccc(Cl)cc1)N1CCN(Cc2c[nH]c3ccccc23)CC1	inactive: 8.92%	
O=C(COC(=O)CNC(=O)c1cccs1)Nc1ccc(C(F)(F)F)cc1[N+](=O)[O-]		inconclusive: 0.461 µM [rising, partial curve]
Brc1ccc(N=Nc2ccc3ccccc3n2)cc1		inconclusive: 20.6 µM [cytotoxic, single point]
COc1ccc(C(=O)C=Cc2ccc(OCc3ccccc3)c(OC)c2)cc1OC		inconclusive: 20.6 µM [cytotoxic, single point]
CSc1ccc(NC(=O)Nc2cccn(Cc3ccccc3)c2=O)cc1		active: 3.66 µM
COCCn1cc(C(=O)c2cc(Br)ccc2O)cc(C#N)c1=O		inconclusive: 20.6 µM [cytotoxic, single point]
OCCN1CCN(C(=S)Nc2cccc(C(F)(F)F)c2)CC1	inconclusive: 22.3%	
Cc1ccccc1-c1csc(C(O)(c2ccccc2)C(F)(F)F)n1 (stereo unspecified)	inactive: 6.17%	
CCCOC1OC(=O)c2c1ccc(OC)c2OC (stereo unspecified)		inconclusive: 32.6 µM [rising, single point]
CCCCC(=O)c1ccc(OC(=O)c2ccc([N+](=O)[O-])cc2)cc1	inactive: 7.56%	
COc1ccc(CCNC(=O)CSc2ncc3c(n2)-c2cc(Cl)ccc2N(Cc2ccccc2)S3(=O)=O)cc1OC		inconclusive: 29.1 µM [cytotoxic, single point]
Cc1noc(NS(=O)(=O)c2ccc(NC(=O)C(CC(C)C)N3C(=O)c4ccccc4C3=O)cc2)c1C (stereo unspecified)		inconclusive: 25.9 µM [rising, single point]
CN(C(=O)c1ccc2c(=O)n3c(nc2c1)CCCCC3)c1cccc(Cl)c1		inconclusive: 20.6 µM [cytotoxic, single point]
Cc1cc(=O)n2nc(N3CCC(C(=O)NCc4cccc(Cl)c4)CC3)sc2n1		inconclusive: 20.6 µM [rising, single point]
COc1ccc(-c2cc(C3CCN(Cc4ccc([N+](=O)[O-])cc4)CC3)[nH]n2)cc1	inactive: -4.25%	
COc1cccc(CNC(=O)[C@@H]2CCCN2C(=O)[C@H]2CCCCN2C(=O)OC(C)(C)C)c1		inconclusive: 5.8 µM [cytotoxic, partial curve, poor fit]
O=C(CCl)Nc1c(C(=O)Nc2ccc3c(c2)OCCO3)oc2ccccc12		inconclusive: 29.1 µM [cytotoxic, single point]
CCN(CC)CC(=O)N1c2ccccc2Sc2ccc(Cl)cc21		inconclusive: 32.6 µM [cytotoxic, single point]

SMILES	activity change, negative = cytotoxicity	Potency
COc1cc(/C=N/N=C2/C(=O)Nc3ccccc32)cc(OC)c1O		inconclusive: 14.6 µM [cytotoxic, single point]
COc1ccc2c(=O)c3c(=O)n(Cc4ccco4)c(-c4cc(OC)c(OC)c(OC)c4)nc3oc2c1	inactive: -22.9%	
CC(=O)c1cnc2c(-c3ccccc3)c(C(F)(F)F)nn2c1C		inconclusive: 25.9 µM [cytotoxic, single point]
COc1cccc(NC(=O)N(C)C[C@H]2OCc3cn(nn3)CCCC(=O)N([C@@H](C)CO)C[C@@H]2C)c1	inconclusive: 1.46%	
Cc1ccc(NC(=O)N2CCC(C(=O)NCc3ccc(F)cc3)CC2)cc1		active: 18.4 µM
COc1ccc(-n2c(SC(C)C(=O)Nc3ncc(Cl)cc3Cl)nc3ccccc32)cc1 (stereo unspecified)		active: 2.06 µM
CC1=C(C(=O)N(C(C)C)C(C)C)CC(CC(=O)NCc2cccc3ccccc23)C(=O)N1CCC1=CCCCC1 (stereo unspecified)		inconclusive: 20.6 µM [cytotoxic, single point]
CCOC(=O)Cn1nc(-c2ccc(C)cc2)c2ccccc2c1=O		inconclusive: 20.6 µM [cytotoxic, partial curve]
CC(=O)N1CCc2cc(NC(=O)C3(C)CCN3Cc3ccccc3OC(F)F)ccc21 (stereo unspecified)		inconclusive: 1.84 µM [cytotoxic, full curve]
CCN(CC)c1ccc(Nc2cc3n(c(=O)n2)CCc2cc(OC)c(OC)cc2-3)cc1	inactive: -0.0826%	
N#CCSc1ccccc1NC(=O)CN1C(=O)NC(CCc2ccccc2)C1=O (stereo unspecified)		inconclusive: 23.1 µM [rising, single point]
O=C(c1ccc(F)cc1)N1CCN(c2ccc([N+](=O)[O-])c(N3CCOCC3)c2)CC1		inconclusive: 9.2 µM [cytotoxic, partial curve]
C=CCNC(=O)COc1ccccc1C#N		inconclusive: 25.9 µM [rising, single point]
Cc1ccc(-n2c(=O)c3cccnc3n2CC(=O)Nc2cccc(C)c2C)cc1	inactive: -1.09%	
Cc1sc2ncn(CC(=O)Nc3ccccc3F)c(=O)c2c1-c1ccccc1		inconclusive: 7.31 µM [cytotoxic, partial curve]
CC(Oc1ccc(Br)cc1)C(=O)N1CCC(C(N)=O)CC1 (stereo unspecified)	inactive: -18.7%	
CCN1CCN(C(=O)CN(c2ccccc2C)S(C)(=O)=O)CC1	inactive: 6.7%	
COc1ccc(-c2csc(N(CCCN(C)C)C(=O)c3ccccc3Cl)n2)cc1		inconclusive: 18.4 µM [cytotoxic, single point]
O=C(N/N=C/c1cccc([N+](=O)[O-])c1)C1CC(=O)N(c2ccc(Br)cc2)C1 (stereo unspecified)		inconclusive: 23.1 µM [cytotoxic, single point]
Cc1ccc(Cl)cc1N1CCN(C(=O)C2CCCN(S(=O)(=O)c3ccc(Br)s3)C2)CC1 (stereo unspecified)	inactive: -4.78%	
CC(=O)C1=C(O)CC(c2ccccc2)CC1=NCCc1c(C)[nH]c2ccc(C)cc12 (stereo unspecified)	inactive: -0.118%	
O=C(COC(=O)c1n[nH]c2ccccc12)NC(=O)NC12CC3CC(CC(C3)C1)C2	inactive: -24.8%	
Cc1ccccc1NC(=O)Cn1nc(C(F)(F)F)cc1C1CC1		inconclusive: 20.6 µM [cytotoxic, partial curve]
Cn1c(C(=O)OCC(=O)NCc2ccc(F)cc2)cc2occc21	inactive: 18.6%	

Look-ups from the entries so far.
COc1ccc2c(=O)c3c(=O)n(Cc4ccco4)c(-c4cc(OC)c(OC)c(OC)c4)nc3oc2c1 | activity change, negative = cytotoxicity: inactive: -22.9%
Cc1ccc(Cl)cc1N1CCN(C(=O)C2CCCN(S(=O)(=O)c3ccc(Br)s3)C2)CC1 (stereo unspecified) | activity change, negative = cytotoxicity: inactive: -4.78%
CC(Oc1ccc(Br)cc1)C(=O)N1CCC(C(N)=O)CC1 (stereo unspecified) | activity change, negative = cytotoxicity: inactive: -18.7%
COc1cc(/C=N/N=C2/C(=O)Nc3ccccc32)cc(OC)c1O | Potency: inconclusive: 14.6 µM [cytotoxic, single point]

(list continues)

SMILES	activity change, negative = cytotoxicity	Potency
CCC(=O)N1CCc2cc(S(=O)(=O)NC(Cc3ccccc3)C(=O)NC3CCCCC3C)ccc21 (stereo unspecified)		inconclusive: 20.6 µM [cytotoxic, single point]
CC(=O)N1CCCc2cc(S(=O)(=O)N3CCCCC3)ccc21	inactive: 6.73%	
COc1ccc(C=NNc2ccc(S(=O)(=O)Nc3ccccc3C(=O)O)cc2[N+](=O)[O-])c(OC)c1	inactive: 1.95%	
Oc1ccc(Cl)c2cccnc12		inconclusive: 29.1 µM [cytotoxic, single point]
CCCCc1c(-c2ccc(Br)cc2)ncn1CCc1ccccc1OC		active: 20.6 µM
CCOc1ccc(NC(=O)CSc2nccn2-c2cccc(C)c2C)cc1	inactive: 0%	
CCC1CCCCN1Cc1nc2c(c(=O)n(C)c(=O)n2C)n1CCC(C)C (stereo unspecified)	inactive: -2.48%	
COc1ccccc1N1CCN(S(=O)(=O)CCNC(=O)C2CCCC2)CC1		inconclusive: 18.4 µM [cytotoxic, partial curve, poor fit]
COc1ccc(CN2CCNC(=O)C2CC(=O)NCc2csc(C)n2)c(F)c1 (stereo unspecified)		inconclusive: 20.6 µM [rising, single point]
CCCCn1c2ccc(F)cc2c2nnc(SCCN3CCCCC3)nc21		inactive
CC(Sc1nnc(-c2ccco2)n1C)C(=O)N(C)C1CCCCC1 (stereo unspecified)		inconclusive: 23.1 µM [cytotoxic, partial curve, poor fit]
CC(=O)c1sc(NC(=O)CCN2C(=O)c3ccccc3C2=O)nc1C	inactive: 9.05%	
Cc1ccc(S(=O)(=O)N(C)C)cc1NC(=O)COC(=O)CSc1ccccc1	inactive: 18.1%	
Cc1ccc(OCC(=O)NCC(=O)OCc2cc(=O)n3nc(C)sc3n2)cc1		inconclusive: 29.1 µM [rising, single point]
O=C(/C=C/c1ccc(Cl)cc1)NC(=S)Nc1ccc(N2CCOCC2)c(Cl)c1		inconclusive: 13 µM [cytotoxic, partial curve]
Cc1cc(C(=O)CSc2nc3ccc(Cl)cc3[nH]2)c(C)n1C		active: 20.6 µM
Cc1cc(C)n(S(=O)(=O)/C=C/c2ccccc2)n1		inconclusive: 18.4 µM [cytotoxic, single point]
O=C(CCN1C(=O)C2C3CCC(C3)C2C1=O)Nc1ccc(Cl)cc1Cl (stereo unspecified)		inconclusive: 16.4 µM [cytotoxic, partial curve]
CC(C)c1ccc(CN2C(=O)c3ccccc3S2(=O)=O)cc1		inconclusive: 25.9 µM [cytotoxic, partial curve, poor fit]
Cc1ccc(C)c(COC(=O)c2cccc(S(=O)(=O)N3CCCC3)c2)c1		inconclusive: 29.1 µM [cytotoxic, single point]
FC(F)(F)c1ccc(C2[C@H]3CN(Cc4cccnc4)[C@H](c4ccccc4)C34CC2(c2cccnc2)C4)cc1 (stereo partly specified)		inconclusive: 29.1 µM [cytotoxic, single point]
COc1ccc(CNC(=O)c2cc(C)nn2-c2ccccc2)cc1	inactive: -28.7%	
Cc1cc(C)cc(OCc2nnc(SCC(=O)c3ccccc3)o2)c1		inconclusive: 20.6 µM [cytotoxic, partial curve, poor fit]
